# The supplement of paper PMC3334620
# Whole data set: some 33,000 sequences, median “E-score (-0.5 to 0.5)” near -0.0059, cut for the highest 2% near 0.26. This is one part of the list.
# Biological target: T1, Cin5 (UniProt P40917)
# T1 sequence: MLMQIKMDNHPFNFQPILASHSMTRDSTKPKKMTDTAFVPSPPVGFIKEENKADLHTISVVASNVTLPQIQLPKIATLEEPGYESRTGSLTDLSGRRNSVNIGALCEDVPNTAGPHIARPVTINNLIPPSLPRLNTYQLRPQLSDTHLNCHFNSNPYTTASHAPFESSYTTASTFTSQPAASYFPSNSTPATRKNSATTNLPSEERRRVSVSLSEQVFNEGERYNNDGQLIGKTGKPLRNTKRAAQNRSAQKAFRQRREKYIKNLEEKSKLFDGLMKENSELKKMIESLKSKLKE
# Assay: PBM E-score (8-mer binding enrichment) (E-score (-0.5 to 0.5)); higher = stronger / more preferred TF binding
# Settings: protein concentration: 100 nM; construct: GST-full length
# Method in brief: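 For each ungapped eight-base word taken together with its reverse complement, the Universal PBM Analysis Suite assigned an E-score. Binding data came from GST-tagged yeast transcription factors, applied at about 100-200 nM, on universal all-10-mer Agilent arrays made double-stranded by primer extension. Fluorescent anti-GST marked bound protein, and scans were normalised with masliner.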
row,Sequence,PBM E-score
1,AGGGCTCG,-0.248
2,AAGAAATG,0.147
3,CCTCACCA,-0.00298
4,ACCGAGGG,-0.414
5,AAGTGGTA,0.0427
6,ATTTTTGA,0.135
7,CCAACTAC,0.0604
8,CCGCTCAG,-0.172
9,CCATCGAG,0.0359
10,TATTAATA,0.297
11,CTCCTCGA,-0.13
12,ACGGACAC,0.0112
13,CAACACGG,-0.117
14,CTTCGCGC,0.186
15,GACACAGA,0.0545
16,AAGGGACT,-0.0894
17,CAGCCTAA,-0.202
18,AAGACTAT,0.0701
19,AAGATTCA,0.115
20,CCACGCCG,-0.167
21,AATGGTTA,0.0582
22,TCCATAAA,0.064
23,CGATCCTC,-0.118
24,ACGTACTC,0.178
25,CCCTATAA,-0.122

row,Sequence,PBM E-score
1,GTCTCCAC,-0.0662
2,CTCTGGTC,-0.155
3,AAGGCAGA,-0.035
4,CAGCGATA,-0.0474
5,GATCCAGA,0.0366
6,AGATAATC,0.197
7,CTGGACTA,-0.116
8,CAGGTTCA,-0.159
9,CCAAGGAG,-0.073
10,GCGATCTA,0.068
11,CGTGTGAA,-0.0465
12,ATCGAGAC,-0.0281
13,ATCGTGCA,0.0702
14,AGCCATAT,0.0514
15,GTTCATAA,0.0958
16,GTCTGTTA,0.194
17,AATCTACC,0.138
18,GACACCTA,-0.0562
19,ATTGATAG,0.151
20,ACACTTCT,0.0539
21,AGGGCGGC,-0.264
22,CAGCAGTC,-0.0173
23,CCATATAC,0.221
24,ATATAACA,0.284
25,CTATGAAA,0.0722

row,Sequence,PBM E-score
1,CGCTGAGA,0.0327
2,TGCGTACA,-0.0796
3,TACAACAA,0.244
4,ACTGTCCG,-0.0755
5,GCCAGAAA,0.205
6,CTGTGGTA,0.0732
7,AACCTTAC,0.152
8,CTGGGAAC,-0.0173
9,ACTTTGGA,0.0534
10,GGTTTAAC,0.0198
11,GCATCCAC,0.0722
12,ATGCGTTG,-0.00188
13,ACTCTCTC,-0.0161
14,GACTTAAA,-0.16
15,ACTGTTTG,0.106
16,AGTATACA,0.135
17,ACAAGAAT,0.0397
18,CAGAGCAG,-0.00566
19,ACGGCCCG,-0.182
20,AATTGTAC,0.198
21,GAGTGCGA,-0.11
22,CAACATAC,0.125
23,ACTTCACA,0.0564
24,CCCAACGC,0.0858
25,CTTAAGCC,0.0161

row,Sequence,PBM E-score
1,ACCGGATC,0.0836
2,GGACAAGA,-0.0182
3,ATATTCAA,0.203
4,CCTAAGAA,-0.118
5,GTCCCCCA,-0.217
6,GCAATGCC,-0.0242
7,CCACGTAA,0.165
8,AACGATAC,0.0238
9,GCCGAAAC,-0.162
10,GCATCGCA,-0.227
11,AATTAGAT,0.294
12,GATAGTCC,-0.0317
13,CCACTCCG,0.0499
14,GATTGAGA,0.181
15,AAGGTTGG,-0.0399
16,GTATTGGA,-0.0766
17,AAGCTACG,-0.0898
18,CTTAGTCA,0.236
19,CAGTAATC,0.15
20,AGACAAAG,-0.00115
21,AACTTTAT,0.123
22,GCCATGTA,0.104
23,TAATAACA,0.146
24,ACGATCCA,-0.0778
25,ACTGACAT,0.0171

row,Sequence,PBM E-score
1,GGCTAAAA,-0.193
2,CCTCTAAC,-0.0941
3,AGACGAGA,0.0138
4,ATAGATCC,0.0534
5,ATTTTACG,0.271
6,CGAATGAG,0.0389
7,GGGACGTA,0.0216
8,AAAAGTGT,-0.0219
9,CTTGGGCA,0.0219
10,GCTCCCCA,-0.265
11,CAACATGG,0.0788
12,ATGGCACG,-0.0722
13,ACCCTGCA,0.0478
14,ATAGATTC,0.0139
15,AACGATTA,0.141
16,ATCGGCGA,-0.164
17,ATACGTAT,0.247
18,CTGTAGCC,-0.21
19,ATTATGTC,0.27
20,GGGCAGGA,-0.00266
21,AAGCTTCC,-0.208
22,TGTAGCAA,0.0167
23,GCTCACCA,-0.0057
24,AATTACCA,0.187
25,CGCTTACA,0.315

# Some of the entries so far, as tab-separated lines:
row	Sequence	PBM E-score
5	ATTTTACG	0.271
6	CGAATGAG	0.0389
7	GGGACGTA	0.0216
8	AAAAGTGT	-0.0219
9	CTTGGGCA	0.0219

# Continued.

row,Sequence,PBM E-score
1,GCCCATAA,-0.171
2,GAATCGAC,0.146
3,CTAACCTA,0.101
4,GAGACTGA,-0.0461
5,CTAAGTAG,0.125
6,AGAATACC,0.207
7,AGTACCGG,-0.115
8,GACCGGGC,-0.222
9,CGAGACTC,-0.0407
10,GAGGTCGC,-0.0922
11,TAGTTTAA,0.0531
12,AGTGGCCA,-0.0707
13,CATGCATG,0.0529
14,AACTCATT,-0.0089
15,ACCGCCGT,-0.00785
16,GCGTAGCA,0.0183
17,TAACCCTA,0.0924
18,CCGTTCCC,-0.0654
19,GAGCAGCA,-0.0583
20,ACAGCAAT,0.2
21,ATACGATC,0.16
22,GATCTGCC,0.0369
23,AAAGAATC,0.0204
24,CGCTACTC,-0.0371
25,ACTTCGAT,0.2

row,Sequence,PBM E-score
1,AAGGGGTG,-0.196
2,GCCTGCAA,-0.0798
3,AGTGTAGC,-0.0211
4,AGAGCTAG,-0.0596
5,CTAGAGGA,-0.279
6,GTAGTCAC,-0.185
7,GAAAAGTA,0.203
8,AATGTGCA,0.0522
9,AAGTTTCC,0.0769
10,TTGCGAAA,0.0737
11,GGAGTGCA,-0.0092
12,AAGCAAGC,0.0852
13,AGTGAGCG,-0.0798
14,GTAAATAC,-0.014
15,GAATGAGA,0.115
16,AGCATGGG,-0.192
17,AGAAATAC,0.0692
18,AGGATACG,-0.255
19,AACAAATT,0.274
20,CTTTCTTC,0.0293
21,CGATGTAG,-0.0299
22,CTAACGGA,0.158

# Looked up one by one from above (7):
row,Sequence,PBM E-score
3,TACAACAA,0.244
19,AACAAATT,0.274
14,ATAGATTC,0.0139
14,CTTCGCGC,0.186
18,CAGAGCAG,-0.00566
12,ATGCGTTG,-0.00188
4,ACCGAGGG,-0.414
